Assay results from article PMC7434918.
Results are given in words; binding and its absence hold for the method and conditions named. In cells and extracts the contact can be indirect. Some results given as binding are weak or reduced against the parent protein; the word gives no strength.

The chains behind the UniProt entries cited, without tags or fusion partners. Residues count along the entry.
UniProt O75460, residues 19-977: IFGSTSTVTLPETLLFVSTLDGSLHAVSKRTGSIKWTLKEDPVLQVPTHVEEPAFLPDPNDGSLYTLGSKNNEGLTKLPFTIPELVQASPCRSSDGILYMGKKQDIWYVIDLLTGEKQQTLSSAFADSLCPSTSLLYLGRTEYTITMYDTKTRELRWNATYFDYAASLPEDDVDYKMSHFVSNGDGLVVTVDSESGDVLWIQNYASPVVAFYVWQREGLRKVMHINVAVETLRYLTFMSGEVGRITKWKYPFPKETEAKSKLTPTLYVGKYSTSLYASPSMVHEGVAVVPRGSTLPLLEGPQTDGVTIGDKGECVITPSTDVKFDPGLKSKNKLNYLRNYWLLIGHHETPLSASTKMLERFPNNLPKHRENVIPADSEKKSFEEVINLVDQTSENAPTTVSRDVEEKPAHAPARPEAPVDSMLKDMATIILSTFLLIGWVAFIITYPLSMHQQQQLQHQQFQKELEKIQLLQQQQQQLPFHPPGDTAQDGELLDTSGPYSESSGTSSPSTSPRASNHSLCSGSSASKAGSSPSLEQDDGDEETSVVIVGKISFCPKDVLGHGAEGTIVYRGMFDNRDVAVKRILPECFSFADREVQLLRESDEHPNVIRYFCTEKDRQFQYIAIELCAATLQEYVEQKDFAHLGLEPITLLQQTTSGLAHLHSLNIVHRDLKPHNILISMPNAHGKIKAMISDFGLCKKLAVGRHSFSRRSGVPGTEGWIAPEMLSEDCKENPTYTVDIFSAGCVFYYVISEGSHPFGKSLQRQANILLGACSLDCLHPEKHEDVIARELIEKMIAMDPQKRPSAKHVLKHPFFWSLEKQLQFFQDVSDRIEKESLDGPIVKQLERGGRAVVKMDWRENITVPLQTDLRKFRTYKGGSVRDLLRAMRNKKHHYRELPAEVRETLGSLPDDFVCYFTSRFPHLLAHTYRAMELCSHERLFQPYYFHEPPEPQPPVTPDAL

Target: HA-tagged inositol-requiring enzyme 1-α (IRE1α) (UniProt O75460)
Test: co-IP; HEK293T cells co-transfected with pMSCV-IRE1α-HA and pLacIOP alone or CAV1 constructs, 48 h; lysis buffer 0.5% NP-40, 350 mM NaCl, 150 mM KCl, 50 mM Tris pH 7.6; extracts incubated with anti-HA antibody-agarose 4 h at 4 °C, washed 3 times; CAV1 and IRE1α detected by blot

B1: Caveolin-1 (CAV1), wild type (protein, UniProt P33724 1-178)
chain: MSGGKYVDSEGHLYTVPIREQGNIYKPNNKAMAEEMSEKQVYDAHTKEIDLVNRDPKHLNDDVVKIDFEDVIAEPEGTHSFDGIWKASFTTFTVTKYWFYRLLSALFGIPMALIWGIYFAILSFLHIWAVVPCIKSFLIEIQCISRVYSIYVHTFCDPFFEAVGKIFSNIRINMQKET
B1 was tested, and the binding was “binds”.
